This is an account of results in publication doi:10.1101/2020.11.04.368498.

Amino acid sequences for entries named in this document (tags omitted).
UniProt P06748: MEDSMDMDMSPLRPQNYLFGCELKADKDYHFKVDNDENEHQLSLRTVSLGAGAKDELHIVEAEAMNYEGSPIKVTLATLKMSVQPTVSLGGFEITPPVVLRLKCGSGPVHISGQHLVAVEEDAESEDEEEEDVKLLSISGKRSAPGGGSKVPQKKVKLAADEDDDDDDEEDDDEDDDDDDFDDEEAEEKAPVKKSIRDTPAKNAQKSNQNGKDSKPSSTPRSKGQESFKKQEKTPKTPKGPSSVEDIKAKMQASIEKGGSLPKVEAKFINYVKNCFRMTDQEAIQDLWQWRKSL

No constants are given. Whether binding was seen depends on the method and setting. Some entries that bind do so weakly or less than the wild type. Where a sequence is shown, tags or fusion partners need not be part of it.

For the assay, the target named is T1, HIS-tagged Aurora-A (UniProt O14965).
T1 sequence: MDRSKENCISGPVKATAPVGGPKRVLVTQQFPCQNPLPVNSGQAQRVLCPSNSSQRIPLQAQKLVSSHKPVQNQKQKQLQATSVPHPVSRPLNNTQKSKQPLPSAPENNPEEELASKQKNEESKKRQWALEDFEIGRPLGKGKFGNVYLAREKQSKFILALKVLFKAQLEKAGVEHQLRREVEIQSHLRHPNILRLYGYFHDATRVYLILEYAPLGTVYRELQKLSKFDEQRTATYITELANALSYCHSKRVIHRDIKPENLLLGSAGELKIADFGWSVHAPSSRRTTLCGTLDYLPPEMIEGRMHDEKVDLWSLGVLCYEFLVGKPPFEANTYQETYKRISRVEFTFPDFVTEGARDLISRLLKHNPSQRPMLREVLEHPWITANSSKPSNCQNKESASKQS
Put plainly: pull-down.

In the case of NPM (from UniProt P06748 1-294), the binding entry is recorded as “binds”.
